Some of these results come from one statement about several compounds together. For some assays here: The name of at least one read-out is uncertain. Some compounds share one range, which may span the group rather than tell each member.
Tests used:
Format in all cases: in vivo
Blattalla germanica = experiment: Test Example 6: Blattalla germanica, filter paper with sucrose bait; settings: 500 ppm test solution, 0.7 ml on filter paper; male imagoes; after 6 days
Nilaparvata lugens = experiment: Test Example 4: Nilaparvata lugens, spray on rice plant; settings: 500 ppm test solution, 20 mL/pot sprayed on rice; first-instar larvae; after 6 days
Aphis gossypii = experiment: Test Example 3: Aphis gossypii, spray on cucumber leaves; settings: 500 ppm test solution, 20 mL sprayed on cucumber; imagoes and larvae; after 6 days
Spodoptera litura = experiment: Test Example 1: Spodoptera litura, artificial diet/filter paper test; settings: 500 ppm test solution, 2 mL; fourth-instar larvae; after 6 days
Adoxophyes orana = experiment: Test Example 2: Adoxophyes orana, artificial diet/filter paper test; settings: 500 ppm test solution, 1 mL; first-instar larvae; after 7 days
Plutella xylostella = experiment: Test Example 9: Plutella xylostella, spray on cabbage; settings: 500 ppm test solution, 20 mL sprayed on cabbage; second-instar larvae; 25° C.; after 5 days
Musca domestica = experiment: Test Example 5: Musca domestica, filter paper with sucrose bait; settings: 500 ppm test solution, 0.7 ml on filter paper; female imagoes; after 24 hours
Culex pipiens pallens = experiment: Test Example 7: Culex pipiens pallens larvae in treated water; settings: active ingredient concentration 3.5 ppm in water; last-instar larvae; after 1 day

SMILES	index in terms of death rate (Blattalla germanica)	index in terms of survival rate (Nilaparvata lugens)	index in terms of survival rate (Aphis gossypii)	index in terms of death rate (Spodoptera litura)	index in terms of death rate (Adoxophyes orana)	index in terms of death rate (Plutella xylostella)	index in terms of death rate (Musca domestica)	index in terms of death rate (Culex pipiens pallens)
COc1ccccc1OC=C(C)C(=Nc1ccc(C)cc1)Oc1ccccc1 [Compound 239, phenyl 3-(2-methoxyphenyloxy)-2-methyl-N-(4-methylphenyl)-2-propenimidate]	4 (4: 100%)	3 (3: 1 to 10%)	3 (3: 1 to 10%)	3 (3: 80 to 99%)	3 (3: 80 to 99%)	3 (3: 80 to 99%)	3 (3: 70 to 99%)	4 (4: 91 to 100%)
CCc1cccc(OC(=Nc2ccc(C)cc2)C(C)=COc2ccccc2OC)c1 [Compound 241, 3-ethylphenyl 3-(2-methoxyphenyloxy)-2-methyl-N-(4-methylphenyl)-2-propenimidate]	4 (4: 100%)	3 (3: 1 to 10%)	3 (3: 1 to 10%)	3 (3: 80 to 99%)	3 (3: 80 to 99%)	3 (3: 80 to 99%)	3 (3: 70 to 99%)	4 (4: 91 to 100%)
CCc1cccc(OC(=Nc2ccc(OC)cc2)C(C)=COc2ccccc2OC)c1 [Compound 247, 3-ethylphenyl N-(4-methoxyphenyl)-3-(2-methoxyphenyloxy)-2-methyl-2-propenimidate]	4 (4: 100%)	3 (3: 1 to 10%)	3 (3: 1 to 10%)	3 (3: 80 to 99%)	3 (3: 80 to 99%)	3 (3: 80 to 99%)	3 (3: 70 to 99%)	4 (4: 91 to 100%)
COc1ccccc1OC=C(C)C(=Nc1ccc(C)c(C)c1)Oc1ccccc1 [Compound 251, phenyl N-(3,4-dimethylphenyl)-3-(2-methoxyphenyloxy)-2-methyl-2-propenimidate]	4 (4: 100%)	3 (3: 1 to 10%)	3 (3: 1 to 10%)	3 (3: 80 to 99%)	3 (3: 80 to 99%)	3 (3: 80 to 99%)	3 (3: 70 to 99%)	4 (4: 91 to 100%)
COc1cccc(OC=C(C)C(=Nc2ccc(C)cc2)Oc2ccccc2)c1 [Compound 260, phenyl 3-(3-methoxyphenyloxy)-2-methyl-N-(4-methylphenyl)-2-propenimidate]	4 (4: 100%)	3 (3: 1 to 10%)	3 (3: 1 to 10%)	3 (3: 80 to 99%)	3 (3: 80 to 99%)	3 (3: 80 to 99%)	3 (3: 70 to 99%)	4 (4: 91 to 100%)
CCc1cccc(OC(=Nc2ccccc2)C(C)=COc2ccc(OC)cc2)c1 [Compound 265, 3-ethylphenyl 3-(4-methoxyphenyloxy)-2-methyl-N-phenyl-2-propenimidate]	4 (4: 100%)	3 (3: 1 to 10%)	3 (3: 1 to 10%)	3 (3: 80 to 99%)	3 (3: 80 to 99%)	3 (3: 80 to 99%)	3 (3: 70 to 99%)	4 (4: 91 to 100%)
CCOc1cccc(OC(=Nc2ccccc2)C(C)=COc2ccc(OC)cc2)c1 [Compound 267, 3-ethoxyphenyl 3-(4-methoxyphenyloxy)-2-methyl-N-phenyl-2-propenimidate]	4 (4: 100%)	3 (3: 1 to 10%)	3 (3: 1 to 10%)	3 (3: 80 to 99%)	3 (3: 80 to 99%)	3 (3: 80 to 99%)	3 (3: 70 to 99%)	4 (4: 91 to 100%)
COc1ccc(OC=C(C)C(=Nc2ccccc2)Oc2cc(C)cc(C)c2)cc1 [Compound 268, 3,5-dimethylphenyl 3-(4-methoxyphenyloxy)-2-methyl-N-phenyl-2-propenimidate]	4 (4: 100%)	3 (3: 1 to 10%)	3 (3: 1 to 10%)	3 (3: 80 to 99%)	3 (3: 80 to 99%)	3 (3: 80 to 99%)	3 (3: 70 to 99%)	4 (4: 91 to 100%)
COc1ccc(OC=C(C)C(=Nc2ccc(C)cc2)Oc2cc(C)cc(C)c2)cc1 [Compound 275, 3,5-dimethylphenyl 3-(4-methoxyphenyloxy)-2-methyl-N-(4-methylphenyl)-2-propenimidate]	4 (4: 100%)	3 (3: 1 to 10%)	3 (3: 1 to 10%)	3 (3: 80 to 99%)	3 (3: 80 to 99%)	3 (3: 80 to 99%)	3 (3: 70 to 99%)	4 (4: 91 to 100%)
CCc1cccc(OC(=Nc2ccc(OC)cc2)C(C)=COc2ccc(OC)cc2)c1 [Compound 278, 3-ethylphenyl N-(4-methoxyphenyl)-3-(4-methoxyphenyloxy)-2-methyl-2-propenimidate]	4 (4: 100%)	3 (3: 1 to 10%)	3 (3: 1 to 10%)	3 (3: 80 to 99%)	3 (3: 80 to 99%)	3 (3: 80 to 99%)	3 (3: 70 to 99%)	4 (4: 91 to 100%)
COc1ccc(OC=C(C)C(=Nc2ccc(C)c(C)c2)Oc2ccccc2)cc1 [Compound 282, phenyl N-(3,4-dimethylphenyl)-3-(4-methoxyphenyloxy)-2-methyl-2-propenimidate]	4 (4: 100%)	3 (3: 1 to 10%)	3 (3: 1 to 10%)	3 (3: 80 to 99%)	3 (3: 80 to 99%)	3 (3: 80 to 99%)	3 (3: 70 to 99%)	4 (4: 91 to 100%)
COc1ccc(OC=C(C)C(=Nc2ccc(C)c(C)c2)Oc2cccc(C)c2)cc1 [Compound 283, 3-methylphenyl N-(3,4-dimethylphenyl)-3-(4-methoxyphenyloxy)-2-methyl-2-propenimidate]	4 (4: 100%)	3 (3: 1 to 10%)	3 (3: 1 to 10%)	3 (3: 80 to 99%)	3 (3: 80 to 99%)	3 (3: 80 to 99%)	3 (3: 70 to 99%)	4 (4: 91 to 100%)
CCOc1ccc(OC=C(C)C(=Nc2ccccc2)Oc2ccccc2)cc1 [Compound 289, phenyl 3-(4-ethoxyphenyloxy)-2-methyl-N-phenyl-2-propenimidate]	4 (4: 100%)	3 (3: 1 to 10%)	3 (3: 1 to 10%)	3 (3: 80 to 99%)	3 (3: 80 to 99%)	3 (3: 80 to 99%)	3 (3: 70 to 99%)	4 (4: 91 to 100%)
CC(=COc1ccc2c(c1)CCC2)C(=Nc1ccccc1)Oc1ccccc1 [Compound 293, phenyl 3-(5-indanyloxy)-2-methyl-N-phenyl-2-propenimidate]	4 (4: 100%)	3 (3: 1 to 10%)	3 (3: 1 to 10%)	3 (3: 80 to 99%)	3 (3: 80 to 99%)	3 (3: 80 to 99%)	3 (3: 70 to 99%)	4 (4: 91 to 100%)
COc1ccc(OC=C(C)C(=Nc2ccccc2)Oc2ccccc2)c(OC)c1 [Compound 294, phenyl 3-(2,4-dimethoxyphenyloxy)-2-methyl-N-phenyl-2-propenimidate]	4 (4: 100%)	3 (3: 1 to 10%)	3 (3: 1 to 10%)	3 (3: 80 to 99%)	3 (3: 80 to 99%)	3 (3: 80 to 99%)	3 (3: 70 to 99%)	4 (4: 91 to 100%)
CC(=COc1ccn(-c2ccc(Cl)cc2)n1)C(=Nc1ccccc1)Oc1ccccc1 [Compound 298, phenyl 3-(1-(4-chlorophenyl)pyrazol-3-yloxy)-2-methyl-N-phenyl-2-propenimidate]	4 (4: 100%)	3 (3: 1 to 10%)	3 (3: 1 to 10%)	3 (3: 80 to 99%)	3 (3: 80 to 99%)	3 (3: 80 to 99%)	3 (3: 70 to 99%)	4 (4: 91 to 100%)
